Experimental data reported in article PMC5996148.
Several values for one entry are separate records, joined by “and”; a condition that tells them apart may be missing. Equal values may be shown once. The list shows a part of the results. For some of these results: The source does not settle which construct or isoform was used.

Chains of the proteins cited; added tags and fusions are not shown. Lines headed by an entry give the natural chain unless they say otherwise; changes in a name come on top.
UniProt Q15651: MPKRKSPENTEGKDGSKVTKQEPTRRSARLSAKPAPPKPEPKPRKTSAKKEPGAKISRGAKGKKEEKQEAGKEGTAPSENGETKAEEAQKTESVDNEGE
UniProt P09651: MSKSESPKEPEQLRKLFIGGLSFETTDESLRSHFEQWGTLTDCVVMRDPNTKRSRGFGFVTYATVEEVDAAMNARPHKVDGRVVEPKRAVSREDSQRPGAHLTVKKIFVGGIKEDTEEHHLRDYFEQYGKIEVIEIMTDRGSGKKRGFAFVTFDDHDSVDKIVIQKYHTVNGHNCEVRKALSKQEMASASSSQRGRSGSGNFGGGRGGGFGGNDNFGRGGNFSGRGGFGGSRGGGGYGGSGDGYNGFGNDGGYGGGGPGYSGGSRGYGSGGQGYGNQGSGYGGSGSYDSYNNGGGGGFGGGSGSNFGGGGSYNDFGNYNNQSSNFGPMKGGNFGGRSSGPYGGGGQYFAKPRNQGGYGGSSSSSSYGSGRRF

What was measured:
Assay in all cases: protein microarray (ProtoArray v5.0), streptavidin-Alexa Fluor 647
Conditions in all cases: 3'-biotin; 20 mM Tris (pH 7.5), 5 mM MgCl2, 100 mM KCl, 0.1% Tween-20, A/T-rich and random oligonucleotide blockers; temperature not stated; high values mean tight binding
[1] = tested on: HK1 (human)
[2] = tested on: HKDC1 (human)
[3] = tested on: HLA class I histocompatibility antigen, Cw-7 alpha chain (human)
[4] = tested on: HLCS (human)
[5] = tested on: HMG20B (human)
[6] = target: T1, HMGB1 (UniProt P09429)
T1 sequence: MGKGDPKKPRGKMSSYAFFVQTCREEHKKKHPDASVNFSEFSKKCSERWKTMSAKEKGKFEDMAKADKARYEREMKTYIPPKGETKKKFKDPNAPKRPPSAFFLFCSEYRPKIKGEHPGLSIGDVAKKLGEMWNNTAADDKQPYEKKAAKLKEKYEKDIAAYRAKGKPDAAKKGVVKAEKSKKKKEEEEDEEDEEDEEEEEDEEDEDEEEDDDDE

[7] = target: T2, HMGB2 (UniProt P26583)
T2 sequence: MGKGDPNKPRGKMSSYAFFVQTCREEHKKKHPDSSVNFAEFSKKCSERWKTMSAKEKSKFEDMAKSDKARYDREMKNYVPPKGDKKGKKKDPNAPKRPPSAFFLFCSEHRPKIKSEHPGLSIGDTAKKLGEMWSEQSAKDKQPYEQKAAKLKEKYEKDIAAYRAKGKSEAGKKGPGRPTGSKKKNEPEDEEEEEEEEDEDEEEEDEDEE

[8] = target: HMGN3 (UniProt Q15651)
[9] = tested on: HN1 (human)
[10] = target: HNRNPA1 (UniProt P09651)

GGGGACAGGGGTATGGGGAGGGG [G4-3 biotinylated (CtG)]
binding signal [1]: -0.322 z-score
binding signal [2]: -0.313 z-score
binding signal [3]: -0.319 z-score
binding signal [4]: -0.281 z-score
binding signal [5]: -0.333 z-score
binding signal [6]: 3.41 z-score
binding signal [7]: 7.26 z-score
binding signal [8]: 6.66 z-score
binding signal [9]: -0.318 z-score and -0.351 z-score
binding signal [10]: 5.47 z-score
